Experimental data from patent US4443448A, “Indane derivatives, pharmaceutical compositions thereof and method of preparation” (priority 1980, dated 1984).

Experiment: in vivo
Details: iv

## CN1CC[C@]23c4c5ccc(O)c4O[C@H]2[C@@H](O)C=C[C@H]3[C@H]1C5 [morfine, reference compound]
  LD50: > 320 mg/kg
